Experimental data reported in publication PMC12170880.

How the values were obtained:
[1] = biological target: T1, HDIP1-c (Arabidopsis thaliana) (UniProt F4I0M4); test: EMSA; conditions: EMSA: 10 mM Tris-HCl pH 7.5, 50 mM NaCl, 1 mM EDTA, 5% glycerol, 1 mg/mL BSA, 1 mM DTT, 30 min, room temperature, 6% native PAGE, 0.5x TBE, recombinant protein, residues 766-826, label: Cy5
T1 sequence (looked up): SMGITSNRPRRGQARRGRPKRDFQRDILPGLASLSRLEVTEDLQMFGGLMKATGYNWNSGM

[2] = biological target: T2, HDIP3-DBD (Arabidopsis thaliana) (UniProt Q9LMG4); test: EMSA; conditions: only partially shifted versus 200-bp P1; EMSA: 10 mM Tris-HCl pH 7.5, 50 mM NaCl, 1 mM EDTA, 5% glycerol, 1 mg/mL BSA, 1 mM DTT; 30 min, room temperature; 6% native PAGE, 0.5x TBE; recombinant protein; residues 806-930; protein details: MBP; label: Cy5
T2 sequence (looked up): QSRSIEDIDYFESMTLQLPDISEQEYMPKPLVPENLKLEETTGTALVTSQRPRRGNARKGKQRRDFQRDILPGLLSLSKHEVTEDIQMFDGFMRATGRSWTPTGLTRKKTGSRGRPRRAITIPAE

Sequence	binding result ([1]; versus 200-bp P1)	binding result [2]	binding result ([1]; only partially shifted versus 200-bp P1)
CTAGCACGTGCCAGGTCATGTGTCGGCGACGGTCAAATGCCGGTGCAAGT (double strand) [P1-2 (50 bp)]	binds more weakly		
GGTTCGTGAAACAGTGAGGGAAAAAGAAGAAGAAGAAGAGAAGACAGTCT (double strand) [P1-1 (50 bp)]		binds more weakly	binds more weakly
GTTTCCACGTGGCAGCCTAATACTCCCAAAATATAATCTTTTGTTTTCGT (double strand) [P1-3 (50 bp)]	binds more weakly		

A weaker result is weaker than the reference pair of the same experiment. Where a protein sequence is shown, tags need not be part of it. For some of these results: For at least one entry, the source does not settle the construct or the ends of the probe. For some of these results: At least one verdict rests on a figure or table, not on a statement of the authors.
